Some of the results follow. These are raw signals, not scaled to a control.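 First-pass screen: polymyxin B was added at a level that permeabilizes the Salmonella outer membrane while sparing the inner membrane. DMSO wells, with and without polymyxin B, defined maximum growth. Because plates differed from one another, each plate's data were ranked separately and the compounds with the lowest OD600 were carried forward as hits.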
Tested on: Salmonella enterica serovar Typhimurium SL1344
Assay: bacterial growth OD600 after 18 h with compound and polymyxin B; higher = more bacterial growth (less inhibition)
Details: 50 µM, Mueller-Hinton broth

Structure (SMILES) | bacterial growth OD600 (polymyxin B 1 µg/mL) | bacterial growth OD600 (polymyxin B 0.75 µg/mL)
O=S(=O)(NCc1cccnc1Oc1ccccc1F)c1cccnc1 | 0.842 | 
COc1ccc(OC2CCN(C3CCCC3)CC2)c(C(=O)NCC2CCOCC2)c1 | 1.27 | 
c1cncc(CN2CCC(C3CCN(c4cnc5ccccc5n4)C3)CC2)c1 (stereo not given) |  | 0.884
COc1cccc(OCc2cc(C(=O)NCc3cnn(C)c3C)n[nH]2)c1 |  | 0.77
Cc1ccccc1C(CC(=O)N(C)CCn1ccnc1)c1ccccc1 (stereo not given) |  | 0.55
Cc1ncc2c(c1CNC(=O)c1cccs1)CCN(C(=O)c1c(-c3ccccc3)noc1C)C2 |  | 0.996
OCC1(Cc2ccccc2)CCN(Cc2cc(F)ccc2-n2cccn2)CC1 | 0.894 | 
CC1(C(=O)N2CCCC2C(=O)Nc2cccc(-n3cccn3)c2)CC1 (stereo not given) | 1.11 | 
Cc1cnc(CNC(=O)C2(N(C)CCc3ccccc3)Cc3ccccc3C2)cn1 |  | 0.523
O=C(c1ccco1)N1CCOC(CCc2ccccc2)C1 (stereo not given) |  | 0.791
CN(CC1CCCN(CCc2ccccc2F)C1)C(=O)C1=CCCCC1 (stereo not given) | 1.08 | 
CC(C)n1cc(C(=O)NCc2ccccc2)c(=O)c(C(=O)N2CCN(c3ccccc3)CC2)c1 |  | 0.709
Cc1ccccc1N1C(=O)CN(C(=O)c2cccc(Cn3cccn3)c2)CC1C (stereo not given) |  | 0.821
CCCn1cc(CN(C)CC2CCCN(CCc3ccccc3F)C2)c(C)n1 (stereo not given) | 0.764 | 
O=C(c1ccc(-n2cccn2)cc1)N1CCCC(CO)(CCOc2ccccc2)C1 (stereo not given) |  | 0.695
CCC(=O)NCc1cccnc1-n1cnc2ccccc21 | 0.866 | 
COCCC1CCCCN1Cc1cnc(S(=O)(=O)C(C)C)n1CCc1ccccc1 (stereo not given) | 1.12 | 
CCN(CC1CCCN(CCc2cccc(F)c2)C1)C(=O)CC1CCN(C)CC1 (stereo not given) |  | 0.951
O=C(c1cnc(O)cn1)N1CCC(C2CCN(Cc3cccc(F)c3F)CC2)C1 (stereo not given) |  | 0.892
COC(=O)CCCC(=O)NC1CC(C)(C)Cc2nc(C(C)(C)C)ncc21 (stereo not given) |  | 0.822

Part of the list above, as tab-separated lines:
Structure (SMILES)	bacterial growth OD600 (polymyxin B 1 µg/mL)	bacterial growth OD600 (polymyxin B 0.75 µg/mL)
COCCC1CCCCN1Cc1cnc(S(=O)(=O)C(C)C)n1CCc1ccccc1 (stereo not given)	1.12	
CCN(CC1CCCN(CCc2cccc(F)c2)C1)C(=O)CC1CCN(C)CC1 (stereo not given)		0.951
O=C(c1cnc(O)cn1)N1CCC(C2CCN(Cc3cccc(F)c3F)CC2)C1 (stereo not given)		0.892
COC(=O)CCCC(=O)NC1CC(C)(C)Cc2nc(C(C)(C)C)ncc21 (stereo not given)		0.822
